# The other results are listed elsewhere or left out.
# System: T1, CTL2-GFP (C. trachomatis L2/434/Bu, GFP-expressing)
# T1 construct: L2/434/Bu, GFP-expressing
# Set-up: species or system HeLa; Intracellular C. trachomatis growth in HeLa cells, bulk GFP fluorescence relative to DMSO
# Settings: bulk GFP, single well; 28.5 h, 10 µM; inhibitor
row,SMILES,% of control remaining [%]
1,CN1CCN(c2nc(NS(=O)(=O)c3cccc(C(F)(F)F)c3)cc3ccccc23)CC1 [CBK200013C],90.5504
2,O=C(Cc1ccsc1)N1CCN(c2ncccn2)CC1 [CBK144525],109.257
3,COc1ccnc(N2CCN(Cc3cncn3C3CCCCC3)CC2)n1 [CBK306925],111.579
4,CC(=O)NC(c1nccs1)C1CCN(C(=O)C2CC2C)CC1 (stereo not shown) [CBK282232],128.688
5,O=C(Nc1ccc2nc(-c3ccc(-c4nc5ccc(NC(=O)c6cccc7ccccc67)cc5[nH]4)cc3)[nH]c2c1)c1cccc2ccccc12 [CBK261160],92.7276
6,CC1(NC(=O)CC[N+]23CCN(CC2)CC3)CS(=O)(=O)CC1S(=O)(=O)[O-] (stereo not shown) [CBK262518],121.301
7,Cc1onc(-c2ccccc2)c1C(=O)N1CCC1 [CBK160450],155.017
8,COc1cc(Nc2cc(-c3cccc(N)c3)ncn2)cc(OC)c1OC [CBK037713],131.028
9,CCOc1ccc(CCC(=O)N2CCCc3c(cnn3C)C2)cc1 [CBK285276],142.214
10,Cc1cc(Cl)ccc1CNS(=O)(=O)c1cccs1 [CBK044714],97.1998
11,COc1ccc(CCN2CCC(Oc3nccnc3OCc3cccnc3)CC2)cc1OC [CBK083179T],112.552
12,Cc1nn(C)c(N2CCNCC2)c1NC(=O)c1cc(-c2ccccc2)oc1C [CBK050356T],106.738
13,CCCc1ccc(S(=O)(=O)Nc2cccc(C(=O)Nc3ccc(F)cc3)c2)cc1 [CBK038978],78.6614
14,Cc1cn(CC(=O)N2CCC(Cn3cncn3)(C3CCCCC3)CC2)c(=O)[nH]c1=O [CBK136800],125.544
15,COc1ncc(-c2nccnc2OCCOc2ccccc2)c(OC)n1 [CBK106752],107.961
16,CCOc1ccccc1-c1nnc(SCC(=O)NC2CCCCC2)o1 [CBK268728],49.214
17,O=C(O)c1cccc(NC(=O)c2cccc(S(=O)(=O)Nc3ccc(Cl)cc3)c2)c1 [CBK261261],107.285
18,COc1ccc(-c2csc(/C(C#N)=C/Nc3ccc(S(=O)(=O)Nc4nccs4)cc3)n2)cc1 [CBK262374],20.6436
19,CN/C(=N\C1CCCCC1)N1CCOCC1 [CBK023800G],96.6171
20,CN1CCN(NC(=O)c2cc(C(=O)c3ccc(Cl)cc3Cl)c[nH]2)CC1 [CBK107420],105.368
21,c1cncc(-c2nccnc2NCC2CC2)c1 [CBK037310],125.914
22,CCOC(=O)c1csc(C2CCCN2C(=O)c2ccsc2)n1 (stereo not shown) [CBK304125],151.766
23,Cc1cc(C)n2nc(C(=O)N/N=C/c3ccc(O)cc3)nc2n1 [CBK261765],108.855
24,CC(C(=O)Nc1ccc(F)c(F)c1)n1cc([N+](=O)[O-])cn1 (stereo not shown) [CBK268771],105.531
25,CN(C)c1cccc(C2CCCN2c2nc3c(cnn3C)c(=O)[nH]2)c1 (stereo not shown) [CBK305220],132.935

row,SMILES,% of control remaining [%]
1,COc1ccc(S(=O)(=O)NC[C@H]2C[C@@H]3CC[N@]2C[C@@H]3CN2CCOCC2)cc1 [CBK288761],122.672
2,O=C(O)CCn1oc(=O)c2ccccc21 [CBK020340],102.296
3,O=C(Nc1ccc(Br)cc1)c1c(O)n2c3c(cccc3c1=O)CCC2 [CBK291207],86.2047
4,CNC(=O)c1ccc(CN(Cc2noc(C(C)C)n2)C2CC2)cc1 [CBK304084],126.228
5,O=C(N[C@H]1CCN2C(=O)c3cc(-c4ccccc4)ccc3NC(=O)[C@H]12)c1cccs1 [CBK289350],133.963
6,CCC(=O)N1CCCc2cc(C(O)CN3CCC(C)CC3)ccc21 (stereo not shown) [CBK282144],127.03
7,CN1CCN(C(=O)CC[C@@H]2CNC(=O)[C@@H]3C[C@H](NC(=O)c4ccccc4)CN23)CC1 [CBK289014],149.299
8,Nc1cc2c(ncn2[C@@H]2C[C@@H](O)[C@@H](CO)O2)c(=O)[nH]1 [CBK201196],173.473
9,N#Cc1cc(F)cc(F)c1NC(=O)c1cccs1 [CBK066832],97.3824
10,O=C(Cc1c[nH]c2ccccc12)N1CCC(F)CC1 [CBK200274],77.2827
11,CCCCC1=NN2C(=N)/C(=C/c3cn(Cc4ccc([N+](=O)[O-])cc4)c4ccccc34)C(=O)N=C2S1 [CBK264320],132.279
12,Cc1ccc(S(=O)(=O)NCC2CCC(C(=O)Oc3ccc4ccc(=O)oc4c3)CC2)cc1 (stereo not shown) [CBK093519],113.404
13,Cc1cc(CC(=O)N2CCN(CCNC(=O)C3CCCC3)CC2)no1 [CBK306376],123.739
14,CC(C)OC(=O)N1CCN(C(=O)c2cn(Cc3cccc(S(C)(=O)=O)c3)nn2)CC1 [CBK160994T],132.97
15,O=C(Cn1c([C@@H]2CCCO2)cc2cccnc21)N1CCCCC1 [CBK282286],128.053
16,Cc1nc(NC(=O)CN2CCN(c3cccc(Cl)c3)CC2)sc1C [CBK305902],80.1403
17,CN(C)c1ccc(Nc2ncnc3c2cnn3CCC#N)cn1 [CBK306231],101.519
18,CCOC(=O)CCNC(=O)c1cncc(-c2ccc(C(=O)N3CCOCC3)cc2)c1 [CBK158645],122.672
19,CC(C)C(=O)N1CC2(CCN(CCc3cccc4ccccc34)CC2)c2ccccc21 [CBK136978],93.3247
20,COc1ccc(F)c(CN2CC3CCCN3C[C@@H]2C)c1 (stereo partly shown) [CBK284549],162.202
21,Cc1cc(C)n(CC(=O)NC(Cc2cccs2)c2nccs2)n1 (stereo not shown) [CBK284686],130.474
22,O=S(=O)(Nc1nnn[nH]1)c1ccc(-c2cc(C(F)(F)F)on2)s1 [CBK062393],109.994
23,Cc1nn(CC(=O)NC2CCC2)c(=O)c2cc3ccsc3n12 [CBK284103],98.004
24,CC[C@H](Cn1ncc2ccccc2c1=O)NC(=O)c1ccc2c(c1)Sc1ccccc1O2 [CBK286173],131.341

# Quoted at random: 3 compounds from above.
row,SMILES,% of control remaining [%]
20,COc1ccc(F)c(CN2CC3CCCN3C[C@@H]2C)c1 (stereo partly shown) [CBK284549],162.202
9,N#Cc1cc(F)cc(F)c1NC(=O)c1cccs1 [CBK066832],97.3824
2,O=C(O)CCn1oc(=O)c2ccccc21 [CBK020340],102.296

# — article PMC12040169 (PLOS Biology, 2025)
